Record: PubChem BioAssay AID1508597 (Cure First, 2020)
This is a random part of the about 2,100 reagents, in one setting of the screen. 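Calls flag viability under 80% in either arm, not effects specific to rucaparib; the reference for percent is not stated.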 Not stated in the record: the 100% reference.

- Screen: 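Knock-downs altering ovarian cancer cell survival with or without PARP inhibitor rucaparib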 (primary screen)
- System: human ovarian carcinoma lines grown from tumours: OCI-P5x (papillary serous) and OCI-C5x (clear cell)
- Knock-down reagent: siRNA pool against human genes, 1.25 pmol siRNA per well
- Duration: 72 h or 96 h, depending on the cell culture
- Challenge: rucaparib 20 µM (about IC30) or vehicle, present until read-out
- Rucaparib or vehicle: Rucaparib
- Cell line: OCI-P5x (serous)
- Detection: 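ATP luminescence measured at 72 or 96 h according to the culture, then normalised and expressed as percent viability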
- Reading the numbers: viability, normalised: higher = more viable cells remaining
- Active means: 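a well counts as a hit if its normalised viability is under 80 percent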
- Meaning of the calls: active = viability under 80%; inactive = viability 80% or more

gene knocked down	technical replicate	viability, normalised (%)	call
KPNA2 (karyopherin subunit alpha 2)	1	89.1	inactive
KPNA2 (karyopherin subunit alpha 2)	2	110	inactive
KPNA2 (karyopherin subunit alpha 2)	3	95.2	inactive
SMPDL3B (sphingomyelin phosphodiesterase acid like 3B)	1	85.1	inactive
SMPDL3B (sphingomyelin phosphodiesterase acid like 3B)	2	80.4	inactive
SMPDL3B (sphingomyelin phosphodiesterase acid like 3B)	3	88.9	inactive
BAZ1B (bromodomain adjacent to zinc finger domain 1B)	1	64.7	active
BAZ1B (bromodomain adjacent to zinc finger domain 1B)	2	64.5	active
BAZ1B (bromodomain adjacent to zinc finger domain 1B)	3	66.6	active
TSPYL2 (TSPY like 2)	1	86.4	inactive
TSPYL2 (TSPY like 2)	2	77	active
TSPYL2 (TSPY like 2)	3	60.1	active
EDC4 (enhancer of mRNA decapping 4)	1	68.1	active
EDC4 (enhancer of mRNA decapping 4)	2	76.1	active
EDC4 (enhancer of mRNA decapping 4)	3	83.8	inactive
CTCF (CCCTC-binding factor)	1	70.9	active
CTCF (CCCTC-binding factor)	2	60.8	active
CTCF (CCCTC-binding factor)	3	53.3	active
HMGN2 (high mobility group nucleosomal binding domain 2)	1	61	active
HMGN2 (high mobility group nucleosomal binding domain 2)	2	53	active
HMGN2 (high mobility group nucleosomal binding domain 2)	3	68.3	active
INO80 (INO80 complex ATPase subunit)	1	64.7	active
INO80 (INO80 complex ATPase subunit)	2	59.2	active
INO80 (INO80 complex ATPase subunit)	3	62.4	active

6 of these entries in another layout.
{"gene knocked down": "SMPDL3B (sphingomyelin phosphodiesterase acid like 3B)", "technical replicate": "1", "viability, normalised (%)": 85.1, "call": "inactive"}
{"gene knocked down": "SMPDL3B (sphingomyelin phosphodiesterase acid like 3B)", "technical replicate": "2", "viability, normalised (%)": 80.4, "call": "inactive"}
{"gene knocked down": "SMPDL3B (sphingomyelin phosphodiesterase acid like 3B)", "technical replicate": "3", "viability, normalised (%)": 88.9, "call": "inactive"}
{"gene knocked down": "BAZ1B (bromodomain adjacent to zinc finger domain 1B)", "technical replicate": "1", "viability, normalised (%)": 64.7, "call": "active"}
{"gene knocked down": "BAZ1B (bromodomain adjacent to zinc finger domain 1B)", "technical replicate": "2", "viability, normalised (%)": 64.5, "call": "active"}
{"gene knocked down": "BAZ1B (bromodomain adjacent to zinc finger domain 1B)", "technical replicate": "3", "viability, normalised (%)": 66.6, "call": "active"}

The listing continues.
gene knocked down	technical replicate	viability, normalised (%)	call
SETD1B (SET domain containing 1B, histone lysine methyltransferase)	1	48	active
SETD1B (SET domain containing 1B, histone lysine methyltransferase)	2	56.4	active
SETD1B (SET domain containing 1B, histone lysine methyltransferase)	3	55.1	active
PALS2 (protein associated with LIN7 2, MAGUK p55 family member)	1	48.8	active
PALS2 (protein associated with LIN7 2, MAGUK p55 family member)	2	73.9	active
PALS2 (protein associated with LIN7 2, MAGUK p55 family member)	3	50	active
SGK2 (serum/glucocorticoid regulated kinase 2)	1	115	inactive
SGK2 (serum/glucocorticoid regulated kinase 2)	2	128	inactive
SGK2 (serum/glucocorticoid regulated kinase 2)	3	87.7	inactive
ELOA3P (elongin A3, pseudogene)	1	102	inactive
ELOA3P (elongin A3, pseudogene)	2	76.4	active
ELOA3P (elongin A3, pseudogene)	3	78.8	active
CAV2 (caveolin 2)	1	82	inactive
CAV2 (caveolin 2)	2	79.5	active
CAV2 (caveolin 2)	3	72.4	active
